This note sets out measurements from article PMC9123286 (The Journal of Cell Biology, 2022).

By UniProt entry, the sequences of proteins in these tests, tags left out.
UniProt Q01590: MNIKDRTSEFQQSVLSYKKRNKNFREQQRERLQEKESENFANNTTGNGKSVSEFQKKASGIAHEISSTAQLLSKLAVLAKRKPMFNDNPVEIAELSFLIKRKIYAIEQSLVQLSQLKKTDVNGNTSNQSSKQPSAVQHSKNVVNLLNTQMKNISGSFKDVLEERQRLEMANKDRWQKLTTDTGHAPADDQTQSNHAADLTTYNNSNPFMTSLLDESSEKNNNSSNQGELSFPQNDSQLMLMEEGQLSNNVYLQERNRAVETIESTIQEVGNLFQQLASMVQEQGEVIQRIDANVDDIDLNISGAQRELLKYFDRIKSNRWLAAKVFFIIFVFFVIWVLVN

In assay [1] the target is T1, Get3 D57E F190D I193D-TEV-GFP (S. cerevisiae) (UniProt Q12154).
T1 sequence: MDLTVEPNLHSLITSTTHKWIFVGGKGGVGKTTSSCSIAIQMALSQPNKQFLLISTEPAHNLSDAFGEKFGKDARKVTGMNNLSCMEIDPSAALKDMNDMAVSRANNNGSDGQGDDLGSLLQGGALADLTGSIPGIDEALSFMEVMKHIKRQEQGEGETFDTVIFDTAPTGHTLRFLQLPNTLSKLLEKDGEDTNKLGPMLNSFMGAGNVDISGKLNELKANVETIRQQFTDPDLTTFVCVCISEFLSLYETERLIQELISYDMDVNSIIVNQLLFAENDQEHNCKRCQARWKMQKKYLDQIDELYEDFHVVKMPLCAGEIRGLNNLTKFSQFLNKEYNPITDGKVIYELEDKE
Kind of assay: affinity purification with mass spectrometry; Get3 variant-TEV-GFP captured from yeast lysate on anti-GFP MicroBeads, no detergent, 1 h at 4°C, eluted with TEV protease; eluates analysed by LC-MS/MS, three biological replicates.

Another assay deals with T2, Get3 D57E-TEV-GFP (S. cerevisiae, UniProt Q12154 1-354, D57E).
T2 construct: Get3, cytosolic ATPase of the GET pathway, S. cerevisiae; ATPase-impaired client trap variant D57E; Captured on anti-GFP beads and eluted by TEV cleavage; the oligomeric state in the lysate was not measured; also called Get3 DE; Get3 D57E (DE); source: yeast (BY4741 background), ectopically expressed, in lysate made without detergent; not shown: TEV site-GFP, C-terminal, kept
T2 sequence (looked up): T1 sequence with D190F, D193I
The description is as above.

Numbering of substitutions follows the chain as printed. No constants are given. Whether binding was seen depends on the method and setting. Binding seen in cells or lysates may run through a third protein. Here binding means that the protein was enriched with, or labelled near, the bait; the list need not be complete. Sequences can lack the tags named with a protein.

As for Sed5 (from UniProt Q01590 1-340), the binding entry (in assay [1]; in the assay with Get3 D57E-TEV-GFP) was “binds” in each case.

B1: N-terminally HA-tagged Erg1 (full length) (enzyme, S. cerevisiae, UniProt P32476 1-496, looked up)
chain: MSAVNVAPELINADNTITYDAIVIGAGVIGPCVATGLARKGKKVLIVERDWAMPDRIVGELMQPGGVRALRSLGMIQSINNIEAYPVTGYTVFFNGEQVDIPYPYKADIPKVEKLKDLVKDGNDKVLEDSTIHIKDYEDDERERGVAFVHGRFLNNLRNITAQEPNVTRVQGNCIEILKDEKNEVVGAKVDIDGRGKVEFKAHLTFICDGIFSRFRKELHPDHVPTVGSSFVGMSLFNAKNPAPMHGHVILGSDHMPILVYQISPEETRILCAYNSPKVPADIKSWMIKDVQPFIPKSLRPSFDEAVSQGKFRAMPNSYLPARQNDVTGMCVIGDALNMRHPLTGGGMTVGLHDVVLLIKKIGDLDFSDREKVLDELLDYHFERKSYDSVINVLSVALYSLFAADSDNLKALQKGCFKYFQRGGDCVNKPVEFLSGVLPKPLQLTRVFFAVAFYTIYLNMEERGFLGLPMALLEGIMILITAIRVFTPFLFGELIG
notes: Erg1, squalene monooxygenase, S. cerevisiae; also called HA–Erg1; source: yeast, expressed from the endogenous ERG1 promoter (genomic) or ectopically in Δget3 cells, in lysate; not shown: HA, N-terminal, kept
As to B1, the binding result (in assay [1]; in the assay with Get3 D57E-TEV-GFP) was “binds” each time.

B2: Sgt2 (protein, UniProt Q12118 1-346)
chain: MSASKEEIAALIVNYFSSIVEKKEISEDGADSLNVAMDCISEAFGFEREAVSGILGKSEFKGQHLADILNSASRVPESNKKDDAENVEINIPEDDAETKAKAEDLKMQGNKAMANKDYELAINKYTEAIKVLPTNAIYYANRAAAHSSLKEYDQAVKDAESAISIDPSYFRGYSRLGFAKYAQGKPEEALEAYKKVLDIEGDNATEAMKRDYESAKKKVEQSLNLEKTVPEQSRDADVDASQGASAGGLPDLGSLLGGGLGGLMNNPQLMQAAQKMMSNPGAMQNIQKMMQDPSIRQMAEGFASGGGTPNLSDLMNNPALRNMAGNLFGGAGAQSTDETPDNENKQ
Take B2: the binding result (in assay [1]; in the assay with Get3 D57E-TEV-GFP) was “binds” throughout.
